# Test results as given in the supplement of paper PMC11348887.
# Where a name gives a salt, the structure may show the parent alone. Some of the results follow. Small differences around the control level are noise.
# Test system: hPSC-derived cortical neurons (WA09)
# Assay: KCl-induced FOS+/EGR-1+ double-positive nuclei fraction z-score (KCl minus unstimulated); higher = stronger activity-induced IEG response
# Conditions: 5 µM; treatment: days 7-14 after plating, readout day 21
row,Compound,KCl-induced FOS+/EGR-1+ double-positive nuclei fraction z-score
1,Cc1ccc(C(=O)NCCCCCC(=O)Nc2ccccc2N)cc1,-0.122
2,CN(C)CCC=C1c2ccccc2CCc2ccccc21 [Amitriptyline HCl],-1.48
3,Nc1nc(N)nc(-c2cc(Cl)ccc2Cl)n1 [Irsogladine],-0.0146
4,O=S(=O)(NCCNC/C=C/c1ccc(Br)cc1)c1cccc2cnccc12,0.338
5,CS(=O)(=O)c1ccc(C(=O)Nc2ccc(Cl)c(-c3ccccn3)c2)c(Cl)c1 [Vismodegib (GDC-0449)],1.53
6,CN[C@@H](C)C(=O)N[C@H](C(=O)N1CCC[C@H]1c1nc(C(=O)c2ccc(F)cc2)cs1)C1CCCCC1,-1.44
